# Assay results reported in PubChem BioAssay AID540276 (National Center for Advancing Translational Sciences (NCATS), 2011).
# “And” between values parts separate entries of the source, which are not always exact repeats. Equal values may be shown once. Among all 300,000 compounds or so, about 5,400 (1.8%) were called active. This list was built around the results that the source calls inconclusive (neither active nor inactive); the mix of calls is not that of the screen. Calls follow the shape of the full dose curve; tested in HEK293 cells. Where the call is inconclusive, the potency comes from a doubtful curve fit.
# Assay: qHTS for inhibitors of binding or entry into cells for Marburg Virus
# Settings: Marburg virus pseudotyped entry inhibition, cell reporter; series mostly up to 37.8 µM
# Potency is read from the fitted curve at half-maximal effect.
row,Structure (SMILES),Potency
1,c1ccc(C(c2ccccc2)c2nc(-c3cccnc3)no2)cc1,inactive
2,Cc1cc(N2CCCN(C)CC2)nc2cc(Cl)ccc12,"inconclusive: 29.1 µM [inhibitor, single point]"
3,COc1ccc(NC(=O)CCOc2ccccc2)c(OC)c1,"inconclusive: 18.3 µM [activator, partial curve, poor fit]"
4,CCN(CC)S(=O)(=O)c1ccc(N2CCCC2)c(NC(=O)c2ccc(OC)cc2OC)c1,"inconclusive: 35.5 µM [inhibitor, single point]"
5,CC1=CC(C)C(COC(N)=O)(COC(N)=O)C(C)C1 (configuration not stated),"inconclusive: 0.112 µM [activator, full curve, poor fit]"
6,O=S(=O)(c1ccc(S(=O)(=O)N2CCCC2)cc1)N1CCCCC1,"inconclusive: 31.6 µM [activator, single point]"
7,COc1ccc(S(=O)(=O)Nc2ccccc2OC)cc1NC(=O)Cc1cccs1,"inconclusive: 13 µM [inhibitor, partial curve, poor fit]"
8,COc1ccc(O)c(/C=c2/sc3nc4cc(C)c(C)cc4n3c2=O)c1,"inconclusive: 0.282 µM [inhibitor, full curve, poor fit]"
9,COc1ccccc1/C=C/C=N/NC(=O)c1cccs1,"inconclusive: 10 µM [inhibitor, partial curve]"
10,Cc1cccc(-n2cc(-c3ccccc3)c3c(N4CCOCC4)ncnc32)c1,"inconclusive: 10 µM [inhibitor, partial curve, poor fit]"
11,Cc1ccc(CNC(=O)CCC2CCCN(Cc3ccc4cccc(F)c4n3)C2)o1 (configuration not stated),"inconclusive: 14.1 µM [inhibitor, partial curve, poor fit]"
12,COc1ccc2oc(=O)c(C(=O)NCCc3c(C)[nH]c4ccc(F)cc34)cc2c1,"inconclusive: 3.55 µM [inhibitor, single point]"
13,Cc1ccc(C)c(CN2CCC(CNC(=O)Nc3ccc(Cl)cc3)CC2)c1,"inconclusive: 3.16 µM [inhibitor, single point]"
14,Cn1nc(C(F)(F)F)c(/C=N/OC(=O)c2ccccc2)c1Cl,inactive
15,c1ccc2sc(C3CCN(Cc4nnnn4Cc4ccc5c(c4)OCO5)CC3)nc2c1,"inconclusive: 12.6 µM [inhibitor, partial curve, poor fit]"
16,CCOc1ccccc1C=NN1CCCCCC1,"inconclusive: 0.447 µM [inhibitor, partial curve, poor fit]"
17,COC(=O)c1cc(OC)c(OC)cc1NC(=O)c1c(-c2ccccc2Cl)noc1C,"inconclusive: 11.6 µM [inhibitor, partial curve, poor fit]"
18,CCOC(=O)c1ccc(NC(=O)CSc2nnc(CNC(=O)c3ccccc3F)o2)cc1,"inconclusive: 0.562 µM [inhibitor, full curve, poor fit]"
19,COc1cccc(C(=O)Nc2cccc(OCc3cc(=O)n4c5c(sc4n3)CCCC5)c2)c1,inactive
20,Cc1ccc(CNC(=O)c2ccccc2N(C)S(C)(=O)=O)cc1,inactive
21,CCNC(=S)Nc1cccc(F)c1C,"inconclusive: 35.5 µM [activator, partial curve, poor fit]"

row,Structure (SMILES),Potency
1,COc1ccc(NC(=O)CCCSc2nc(-c3ccco3)cc(C(F)(F)F)n2)cc1OC,"inconclusive: 17.8 µM [inhibitor, single point] and inconclusive: 7.08 µM [inhibitor, partial curve]"
2,Cc1ccc(/C=C/C(=O)OC(C)C(=O)NC2CCCCC2C)o1 (configuration not stated),"inconclusive: 2.82 µM [inhibitor, single point]"
3,CCCCN(CC)CCCNC(=O)c1cc2c(=O)[nH]c3ccccc3c2n1C,"inconclusive: 35.5 µM [inhibitor, single point]"
4,Cc1cccc(C)c1Nc1nn2c(=O)c3cc4c(cc3nc2s1)OCO4,inactive
5,Cc1c(NC(=S)Nc2ccccc2)c(=O)n(-c2ccccc2)n1C,"inconclusive: 14.1 µM [activator, single point]"
6,Brc1ccc2c(c1)OCCOCCOc1cc(Br)ccc1OCCOCCOCCO2,"inconclusive: 14.1 µM [inhibitor, partial curve, poor fit]"
7,CCn1cc(C(=O)NCc2ccco2)c(=O)c2cc(S(=O)(=O)N3CCc4ccccc4C3)ccc21,inactive
8,Cc1ccc(/C=C/C(=O)OCC(=O)Nc2cccc(S(=O)(=O)N(C)C)c2)o1,"inconclusive: 3.16 µM [activator, single point]"
9,CCc1ccc(OCC(=O)NCCN(C)C)c(Br)c1,"inconclusive: 35.5 µM [inhibitor, single point]"
10,CCN1CCN(C(=O)CCN2C(=O)c3ccccc3C2=O)CC1,"inconclusive: 35.5 µM [inhibitor, single point]"
11,Cc1ccc(-c2nnn(CC(=O)N(Cc3cccs3)C(C(=O)NC3CCCCC3)c3ccco3)n2)o1 (configuration not stated),"inconclusive: 6.31 µM [activator, single point]"
12,CCCCn1c(N)c(N(CCOC)C(=O)CN(C)S(=O)(=O)c2ccc(C)cc2)c(=O)[nH]c1=O,"inconclusive: 35.5 µM [activator, single point]"
13,CCCCSc1nc2sc3c(c2c(=O)n1-c1ccc(OC)cc1)CCN(C)C3,"inconclusive: 35.5 µM [inhibitor, single point]"
14,O=C(Nc1nc(-c2cccnc2)cs1)c1ccccc1F,"inconclusive: 3.98 µM [activator, partial curve, poor fit]"
15,Cc1ccc(C(CNS(=O)(=O)c2ccc(Br)cc2)N2CCN(C)CC2)cc1 (configuration not stated),"inconclusive: 14.1 µM [inhibitor, single point]"
16,COc1ccc(C2CC(=O)n3nc(C45CC6CC(CC(C6)C4)C5)nc3S2)cc1OC (configuration not stated),inactive
17,CCOC(=O)c1ccc(N2C(=O)c3n[nH]c(-c4ccco4)c3C2c2ccc(C)cc2)cc1 (configuration not stated),"inconclusive: 35.5 µM [inhibitor, single point]"
18,COc1ccc(N(C(=O)c2ccncc2)S(=O)(=O)c2cccs2)cc1,inactive
19,O=C(C(=O)N1CCCC1CO)N1CCCC1CO (configuration not stated),"inconclusive: 6.31 µM [activator, partial curve]"
20,O=C(Nc1ccc(-n2nncc2-c2ccco2)cc1)c1cccc(F)c1,"inconclusive: 20.6 µM [inhibitor, single point]"
21,CC1CCN(S(=O)(=O)c2ccc(C(=O)Nc3nnc(-c4ccccn4)o3)cc2)CC1,"inconclusive: 8.91 µM [inhibitor, full curve, poor fit]"

row,Structure (SMILES),Potency
1,O=C(CSc1ncn[nH]1)Nc1cccc(S(=O)(=O)N2CCCCCC2)c1,"inconclusive: 7.94 µM [inhibitor, partial curve, poor fit]"
2,Cc1cc(C)nc(SCc2ccc(C(=O)N/N=C/c3ccc(C(=O)O)cc3)cc2)n1,inactive
3,O=C(N/N=C/c1c(Cl)cccc1Cl)c1ccccc1F,"inconclusive: 0.794 µM [inhibitor, partial curve, poor fit]"
4,CN1CCN(c2ccc(Cl)cc2NC(=O)/C=C/c2cccc(F)c2)CC1,active: 5.01 µM
5,COC(=O)c1c(N)sc2c1CCN(c1ncc(C(F)(F)F)cc1Cl)C2,"inconclusive: 15.8 µM [inhibitor, single point]"
6,CCCC1(c2ccccc2)NC(=O)N(CC(=O)Nc2sc(-c3ccccc3)cc2C(=O)OCC)C1=O (configuration not stated),"inconclusive: 22.4 µM [inhibitor, single point]"
7,Cc1cc(C)c(/C=N/NC(N)=O)c(C)c1/C=N/NC(N)=O,"inconclusive: 0.708 µM [activator, full curve, poor fit]"
8,CCc1ccc(S(=O)(=O)N(C(=O)c2ccncc2)c2ccc3oc(C)c(C(=O)OC)c3c2)cc1,"inconclusive: 7.08 µM [inhibitor, partial curve, poor fit]"
9,CN(C)CCCn1c2c(c(SCC(=O)Nc3cccc4ccccc34)nc1=O)CCCC2,"inconclusive: 35.5 µM [inhibitor, single point]"
10,Cc1cccc(Nc2nnc(-c3ccc(C(=O)N4C[C@H]5C[C@H](C4)c4cccc(=O)n4C5)cc3)c3ccccc23)c1,"inconclusive: 35.5 µM [inhibitor, single point]"
11,O=C(NN=C1CCCCC1)c1cc(-c2ccccc2)n[nH]1,"inconclusive: 2.31 µM [activator, partial curve, poor fit]"
12,COC(=O)C1=C(C(=O)OC)[C@@H]2N(C)c3ccccc3[C@@]23C[C@@H](CO)N(C(=O)Nc2ccc(C(F)(F)F)cc2)C3=N1,"inconclusive: 0.335 µM [inhibitor, partial curve, poor fit]"
13,O=C(CC(SCCO)c1ccc2c(c1)OCO2)c1ccco1 (configuration not stated),inactive
14,Cc1cccc(NC(=O)C2CCC(CNC(=O)[C@@H]3Cc4ccccc4CN3)CC2)c1 (some centres not stated),"inconclusive: 35.5 µM [inhibitor, single point]"
15,CC(C)(C)C(=O)Nc1ccc2oc(-c3cc(F)c(F)cc3Cl)nc2c1,"inconclusive: 35.5 µM [inhibitor, single point]"
16,Cc1cc(C(=O)CSc2nnc(-c3ccco3)o2)c(C)n1Cc1ccco1,inactive
17,Cn1c(=O)c2[nH]c(CCCCCCCCc3nc4ccccc4[nH]3)nc2n(C)c1=O,"inconclusive: 15.8 µM [inhibitor, partial curve, poor fit]"
18,O=C(O)CSc1nnc(C2COc3ccccc3O2)n1-c1ccccc1 (configuration not stated),inactive
19,CCOC(=O)CCn1nc(-c2ccccc2)cc1N,inactive
20,Cc1ccc(C)n1N1C(=O)/C(=C\c2ccc(Cl)cc2)SC1=S,"inconclusive: 31.6 µM [inhibitor, partial curve, poor fit]"
